In PubChem BioAssay AID638 (SRMLSC, 2007):
The whole screen tested about 1,300 compounds, of which about 65 (5%) were called active.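 How the source made its calls: active means growth inhibition reaching a set limit at one or more tested doses; inactive means the rest.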 The list shows a part of the results. Measured potencies and affinities stand elsewhere.

experiment: wild-type E. coli BW25113 antibacterial activity – OD615, dose response (AID 638); conditions: at 100 µM (top of the series) unless noted
How it was run: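 Assay system: E. coli BW25113 wild type. Doses: compound concentration series. Timing: 20 h compound exposure, 37 °C. Technique: OD615 absorbance. Medium: LB broth containing kanamycin at 50 µg/mL. Benchmarks: chloramphenicol at 30 µM final as inhibition control. Measure: IC50 from 4-parameter logistic, bounds fixed 0–100%.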

Growth inhibition, inactive:
CCCN(CCC)c1nc(NC2CCN(C(=O)OCC)CC2)nc(OC)n1 -1.37%, CSc1nc2ccc(NS(=O)(=O)c3ccc4c(c3)OCCO4)cc2s1 -7.17%, COc1ccc2c(c1)CCc1c(C(=O)N3CCc4ccccc4C3)noc1-2 -8.43%, N#Cc1nc(COc2ccc(Br)cc2)oc1NCCCn1ccnc1 9.86% [at 50 µM], CCCc1cc(C(=O)Cc2ccc(C(=O)OCC)o2)c(O)cc1O 3.69%, O=C(c1cccc(F)c1)N1CCN(C(=O)c2cc(-c3ccc(Cl)cc3Cl)on2)CC1 -2.14%, N#Cc1c(NC(=O)CSc2n[nH]c(Cc3ccccc3)n2)oc(-c2ccccc2)c1-c1ccccc1 -4.93%, CC(C)(C)c1ccc(-c2nnc(SCCC#N)n2C2CCCC2)cc1 -2.58%, O=C(NC1CCCCC1)c1sc(=S)n2c1[nH]c(=O)c1ccccc12 -15.8%, CN1/C(=C\C(=O)COc2ccc3c(c2)OCO3)C(C)(C)c2ccccc21 -1.95%, CC(C)(C)NC(=O)C(c1ccco1)N(C(=O)Cn1nnc(-c2ccc(F)cc2)n1)c1cccc(F)c1 (configuration not stated) -8.87%, Fc1cccc(Cl)c1Cn1nnc(-c2ccc3c(c2)OCO3)n1 -5.08%, Cn1c(=O)n(CCCOc2ccc(Br)cc2)c2ccccc21 9.45%, CCCOC(=O)/C(C(N)=NCc1ccccc1)=C(\O)OCCC -4.62%, CCOc1ccc2nc(N3CCCN(C(=O)Nc4ccccc4C)CC3)c(C#N)cc2c1 -13.4%, Cc1cc(C)n(-c2nc(SCC(=O)N3CCCC3)c3c4c(sc3n2)CCCC4)n1 -5.81%, O=c1c2c(nc3c(-c4cccc5ccccc45)c[nH]n13)CCC2 -1.35%, CCSCC1COC(c2cccn2Cc2ccc(C)cc2)=N1 (configuration not stated) 10.3%, C=C(C)COc1ccc(-c2[nH]ncc2Oc2ccccc2OC)c(O)c1 14.5%, CC1CCCC(C)N1C(=O)CN1C(=O)C(C)(C)Oc2ccc(C(=O)NC3CCCCC3)cc21 (configuration not stated) 5.29%, Cc1cc2n(n1)C(c1ccc3c(c1)OCO3)Nc1c(C)cccc1-2 (configuration not stated) -5.6%, COc1ccc2[nH]c3c(=O)n(CCCCC(=O)N4CCCC4)c(=S)[nH]c3c2c1 -6.47%, CCn1c(SCC(=O)Nc2nc(-c3ccc(C)cc3)cs2)nnc1-c1ccccc1O -11.4%, Cc1ccc(C)c(N2CCN(C(=O)c3ccccc3Br)CC2)c1 4.19%, Cn1ncc(C#N)c1/N=C/N(Cc1ccccc1)Cc1ccccc1 -0.61%, Cc1cc(N2CCC(C)CC2)nc(-n2nc(C)cc2C)n1 -4.79%, CC1=C(C(=O)OC2CCCCCC2)C(c2ccc(C)o2)C2=C(CCCC2=O)N1 (configuration not stated) -3.74%, Cc1ccc(Cl)cc1N1CCN(Cc2nnnn2Cc2ccco2)CC1 -0.95%, O=C(Cc1ccccc1F)Nc1nc(-c2cccs2)cs1 13.6%, CCOC(=O)c1c(C)c(C(=O)Nc2cc(OC)ccc2OC)c(C)n1CC 5.14%, CC1CCCN(S(=O)(=O)c2ccc(NC(=O)Cn3nnc(-c4ccccc4F)n3)cc2)C1 (configuration not stated) -14.7%, CC(C)(C)c1[nH]nc2c1C(Cc1ccccc1)C(C#N)=C(N)O2 (configuration not stated) 2.92%, COc1ccc(CNc2nc3c(c(=O)n(Cc4ccc(F)cc4)c(=O)n3C)n2C)cc1 0.52%, Cc1ccc2[nH]c(=O)c(CN(Cc3nnnn3Cc3ccccc3)C3CCCC3)cc2c1 2.98%, CCOC(=O)C1CCN(Cc2cn[nH]c2-c2ccc(C)cc2)CC1 1.66%, CCOc1cc(S(=O)(=O)n2cc(-c3ccc(F)cc3)c(N)n2)cc(OCC)c1OCC -4.64%, S=C(c1ccc(-c2ccc(Cl)c(Cl)c2)o1)N1CCOCC1 2.64%, c1ccc(-c2oc3ncnc(NCCCn4ccnc4)c3c2-c2ccccc2)cc1 6.48%, CCCCN(CCCC)C(=O)CSc1nnc(-c2cc(OC)c(OC)c(OC)c2)o1 -2.21%, COc1ccc(OC)c(S(=O)(=O)N2CCN(c3c(C)cccc3C)CC2)c1 -10%, Cc1ccccc1-c1nnc(SCc2ccccc2F)o1 -0.89%, CCn1c(CNc2cccc(Cl)c2)nnc1SCC(=O)OC1CCCCC1 2.11%, CCc1ccc2oc(=O)cc(CN(C)Cc3ccccc3)c2c1 2.47%, Cc1ccc(C)c(N2CCN(C(=O)c3cc4sccc4n3C)CC2)c1 -11%, Cc1sc2nc(CN(Cc3cccs3)C(=O)NC3CCCCC3)[nH]c(=O)c2c1C -6.58%, Cc1ccc2nc(NC(=O)CNS(=O)(=O)c3ccc(Br)s3)sc2c1 -4.36%, COc1cc(NS(=O)(=O)c2ccc(NC(=O)COc3ccccc3Cl)cc2)nc(OC)n1 -15.9%, CCCc1cc(-c2[nH]ncc2-c2ccc3c(c2)OCCCO3)c(O)cc1O 9.95%, O=C(c1ccco1)N1CCN(c2ncnc3c2[nH]c2ccc(Br)cc23)CC1 -11.1%, N#C/C(=C\c1ccc[nH]1)Sc1nc2ccccc2s1 17.3%, O=C(Nc1nnc(-c2ccccc2Cl)o1)c1cccnc1 0.28%, COC(=O)c1ccc(Oc2nc(N3CCCCC3)nc(N3CCOCC3)n2)cc1 -2.18%, O=C(C1CCCCC1)N1CCC(c2nc3c(nnn3Cc3c(F)cccc3Cl)c(=O)[nH]2)CC1 9.36%, CCOC(=O)c1ccc(NC(=O)CCc2nc(-c3ccccc3Cl)no2)cc1 10.4%, COc1cc(-c2nnc(-c3ccco3)o2)ccc1OCc1ccccc1 -6.15%, O=C(Nc1nc2ccccc2n1CCOc1ccc(Cl)cc1)c1ccco1 3.35%, Cc1ccc(Cn2ccc(NC(=O)c3cc(CC(C)C)on3)n2)cc1 0.62%
